Test [1] addresses MUC1*_(1110-ecd) peptide (human) (UniProt P15941). Briefly: pull-down; MUC1*1110-ecd or irrelevant peptide on NTA-agarose beads; T47D cell lysate in PBS with 0.1% NP40 (text: lysate/supernatant mixtures); eluted with 250 mM imidazole; SDS-PAGE, silver staining, N-terminal microsequencing of the bands; only the target purified.
Test [2] deals with T1, Irrelevant peptide (ligand fishing control, Figure S3).
T1 sequence (peptide): ARKCSLTGKWTNDLGSNMT
The description is as above.

The chains behind the UniProt entries cited, without tags or fusion partners. Where a name states a change or a piece, a line headed by the entry shows the natural chain unless it says otherwise. Residues count along the entry.
UniProt P15941, residues 1110-1154: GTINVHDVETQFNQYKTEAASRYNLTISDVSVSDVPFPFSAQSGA
UniProt P22392: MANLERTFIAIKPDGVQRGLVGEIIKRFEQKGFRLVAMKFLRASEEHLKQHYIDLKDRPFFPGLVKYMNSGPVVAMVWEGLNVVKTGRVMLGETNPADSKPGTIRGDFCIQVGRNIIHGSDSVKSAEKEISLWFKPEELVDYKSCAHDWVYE
UniProt P15531: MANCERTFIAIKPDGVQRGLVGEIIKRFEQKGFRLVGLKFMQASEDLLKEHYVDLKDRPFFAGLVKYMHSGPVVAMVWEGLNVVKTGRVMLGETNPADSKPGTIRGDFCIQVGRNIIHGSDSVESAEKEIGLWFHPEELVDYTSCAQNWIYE

Test [3] deals with T2, Irrelevant peptide (SPR control surface).
T2 sequence (peptide): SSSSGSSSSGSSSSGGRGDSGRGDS
The experiment in a line: SPR; Biacore3000; His-tagged peptides on NTA-Ni SAM chips; 35 uL plugs of NM23 at 5 uL/minute; bovine NM23 in PBS, recombinant human NM23 in PBS with 15 mM imidazole; control peptide on a second flow channel; 1:1 Langmuir model; both purified.

Test [4] addresses MUC1*_(1110-ecd) peptide (human) (UniProt P15941). Briefly: gold nanoparticle aggregation (colour change); histidine-tagged peptides (100 uM in PBS) on NTA-Ni gold nanoparticles, alone or mixed; colour change after 15 minutes; both purified.

This is an account of results in PMC2329594, “A Minimal Fragment of MUC1 Mediates Growth of Cancer Cells” (PLoS ONE, 2008).

Results are given in words; binding and its absence hold for the method and conditions named. For some assays here: Binding seen in cells or lysates may run through a third protein. Some entries that bind do so weakly or less than the wild type.

For the substance “NM23 isoform H2 (17 kDa band from T47D cells) (from UniProt P22392 1-152)”, the results for the binding result in test [1] and in test [2] were “binds” and “no binding”, respectively.

As for “NM23 (as injected at 15 nM in Figure 4E) (from UniProt P15531 1-152)”, the binding entry in test [3] is “no binding (tested: 15 nM)”.

As for “MUC1*_(1110-ecd) peptide (from UniProt P15941 1110-1154)”, the binding result in test [4] is reported as “no binding”. As to “NM23 isoform H1 (23 kDa band from T47D cells) (from UniProt P15531 1-152)”, the binding entry in test [2] is “no binding”.
